Results reported in PubChem BioAssay AID504467 (National Center for Advancing Translational Sciences (NCATS), 2011).
About 7,700 (2.3%) of roughly 330,000 compounds were called active. This list was built around the results that the source calls inconclusive (neither active nor inactive); the mix of calls is not that of the screen. Calls come from the whole dose curve; as a rule, active = well fitted inhibition curve with a large enough effect; inconclusive = small, poorly fitted or top-dose-only effect, or effect the other way; inactive = flat fitted curve, though single readings scatter. Potencies beside an inconclusive call are fits to weak or partial responses and may not hold up.
Potency is the fitted concentration of half-maximal effect.

Assay: qHTS screen for small molecules that inhibit ELG1-dependent DNA repair in human embryonic kidney (HEK293T) cells expressing luciferase-tagged ELG1; note: nearly all actives have a fitted effect of over 55% in size
Details: HEK293T ELG1-luciferase reporter, luminescence, 16 h, DNA damage induced by 5-fluorouridine; series mostly up to 46.1 µM
Outline: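 Cells (2,000 per well) received 5-fluorouridine plus test compound or DMSO and were incubated 16 hr at 37 °C, 5% CO2. Luciferase activity was read by luminescence 30 min after ONE-Glo addition; signal suppression marked inhibition of damage-induced ELG1 function.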
With `COc1cc(/C=N/NC(=O)c2ccncc2)ccc1OC(=O)c1cccc(F)c1` the Potency was “inactive”.
With `CC1CCc2c(sc(NC(=O)/C=C/c3cccs3)c2C(=O)O)C1` (stereo not given) the Potency was “inactive”.
For `COCCn1cnc2c1c(=O)n(Cc1ccc(Br)cc1)c(=O)n2Cc1ccccc1`, the Potency was “inactive”.
With `CCN(CC)C(=O)c1nn(-c2ccccc2)c2c1C1CCC2(C)C1(C)C` (stereo not given) the Potency was “inactive”.
With `O=c1[nH]c2ccc(S(=O)(=O)N3CCCC3)cc2[nH]1` the Potency was inconclusive: 29.1 µM [activator, partial curve, poor fit].
In the case of `O=C(NC1CCN(S(=O)(=O)c2ccc(F)cc2)CC1)c1cccnc1`, the Potency is reported as “inactive”.
For `Cc1cc(O)ccc1Nc1nc(-c2sc(N)nc2C)cs1`, the Potency was “inactive”.
For `COc1ccccc1NC(=O)c1cc(-c2cc(OC)c(OC)c(OC)c2)nc2ccccc12`, the Potency was inconclusive: 16.4 µM [inhibitor, partial curve].
In the case of `COc1ccc(Cl)cc1NC(=O)Nc1ccc(Br)cn1`, the Potency is reported as inconclusive: 20.6 µM [activator, single point].
For `CCCCC(=O)Nc1cccc(NC(=O)c2ccc(Br)cc2)c1`, the Potency was “inactive”.
With `Oc1ccc(C=Nc2ccccc2-c2nc3ccccc3[nH]2)c(O)c1` the Potency was inconclusive: 13 µM [activator, partial curve].
In the case of `Cc1coc(C)c1C(=O)Nc1ccc2ccccc2c1`, the Potency is reported as inconclusive: 20.6 µM [activator, partial curve].
With `CC(O)CNc1nc2c(c(=O)n(C)c(=O)n2C)n1CCc1ccccc1` (stereo not given) the Potency was inconclusive: 9.2 µM [inhibitor, partial curve].
In the case of `CCSc1ccc([C@@H]2[C@H]3C(=O)N(C)C(=O)[C@H]3[C@]3(C(=O)OC)CCCCN23)cc1OC`, the Potency is reported as inconclusive: 22.4 µM [inhibitor, single point].
With `O=C(Cc1cccc(C(F)(F)F)c1)NCc1cccnc1` the Potency was “inactive”.
With `CCOC(=O)N1CCN(C(=O)CSc2nnc(-c3ccc(C)c(C)c3)o2)CC1` the Potency was inconclusive: 14.6 µM [inhibitor, partial curve, poor fit].
With `CCN1C(=O)OC2(CCCCC2)C1(C)O` (stereo not given) the Potency was “inactive”.
For `COc1cc(/C=C/c2cc(C(=O)O)c3ccccc3n2)ccc1OC(F)F`, the Potency was inconclusive: 9.2 µM [activator, partial curve].
For `CCS(=O)(=O)N1CCC(C(=O)Nc2ccc(C(C)=O)cc2)CC1`, the Potency was “inactive”.
In the case of `CNC(=O)CSc1nnc(-c2cccc(S(=O)(=O)N3CCOCC3)c2)n1-c1ccc(F)cc1`, the Potency is reported as “inactive”.
With `O=C(COc1ccc(Br)cc1)OCC(=O)N1CCOCC1` the Potency was inconclusive: 18.3 µM [activator, single point].
For `CCC(C)(C)NC(=O)C(Sc1ccccc1)c1ccccc1` (stereo not given), the Potency was “inactive”.
For `COc1ccc(Cl)cc1NC(=O)CN(C)C(=O)Cn1c(=O)oc2ccccc21`, the Potency was “inactive”.
With `CCc1onc(C)c1C(=O)O` the Potency was “inactive”.
For `CCCCn1c(=O)[nH]c(=O)c2c1nc(-c1ccccc1F)n2Cc1ccccc1OC`, the Potency was inconclusive: 29.1 µM [inhibitor, single point].
For `Cc1ccc(S(=O)(=O)/N=C(/Nc2ccc([N+](=O)[O-])cc2[N+](=O)[O-])c2ccccc2)cc1`, the Potency was active: 23.1 µM.
For `COc1ccc(C2c3c(ccc4ccccc34)Oc3ncn4nc(Cc5ccc(OC)c(OC)c5)nc4c32)cc1` (stereo not given), the Potency was “inactive”.
In the case of `Cc1cc([N+](=O)[O-])ccc1NC(=O)CN1CCN(Cc2ccccc2)CC1`, the Potency is reported as inconclusive: 35.5 µM [inhibitor, single point].
In the case of `CC(NC(=O)c1ccco1)C(=O)N1CCN(c2cccc(C(F)(F)F)c2)CC1` (stereo not given), the Potency is reported as “inactive”.
With `COc1ccc2c(C)cc(SCC(=O)c3ccc4c(c3)OCO4)nc2c1` the Potency was inconclusive: 0.58 µM [activator, single point].
For `Cc1cc(Cl)ccc1NC(=S)NCCN1CCOCC1`, the Potency was “inactive”.
With `CCOC(=O)c1ccc(NC(=O)c2ccc3c(c2)OCO3)cc1` the Potency was inconclusive: 8.2 µM [activator, partial curve, poor fit].
With `Cc1ccc(OCC(=O)NNC(=O)C2CCC2)cc1C` the Potency was inconclusive: 3.26 µM [activator, full curve].
With `CC(C)c1ccc(S(=O)(=O)NC2CCS(=O)(=O)C2)cc1` (stereo not given) the Potency was “inactive”.
In the case of `CCCOc1ccc(/C=N/Nc2ccccn2)cc1OC`, the Potency is reported as inconclusive: 5.17 µM [activator, full curve].
For `CCc1ccc(N(C(=O)Cc2cccs2)C(C(=O)NC2CCCCC2)c2cn(C)nc2C)cc1` (stereo not given), the Potency was “inactive”.
For `COc1cccc(Oc2cn[nH]c2-c2ccc(O)cc2O)c1`, the Potency was inconclusive: 18.4 µM [inhibitor, partial curve, poor fit].
For `C[C@H](NC(=O)c1ncn(Cc2ccccc2)c1C(=O)N[C@@H](C)c1ccccc1)c1ccccc1`, the Potency was “inactive”.
In the case of `O=C(CSc1nc2ccccc2c(=O)n1NC(=O)c1ccccc1)c1ccccc1`, the Potency is reported as inconclusive: 1.3 µM [activator, full curve].
With `CC(=O)CC(=O)Nc1ccc2ccccc2c1` the Potency was inconclusive: 29.1 µM [activator, single point].
In the case of `COc1ccc(C(=S)N2CCOCC2)cc1OS(=O)(=O)c1ccc(Br)cc1`, the Potency is reported as inconclusive: 20.6 µM [inhibitor, partial curve].
In the case of `Cc1cccc(C)c1NC(=O)C1c2cccc[n+]2CC(=O)N1Cc1ccc2c(c1)OCO2` (stereo not given), the Potency is reported as “inactive”.
With `O=C(CSC(=S)N1CCCCC1)c1c(F)cccc1F` the Potency was inconclusive: 7.3 µM [activator, partial curve].
With `CC1C(=O)Nc2ccc(S(=O)(=O)Nc3ccccc3Br)cc2NC1=O` (stereo not given) the Potency was “inactive”.
For `CCCCCC(=O)Nc1ccc(C2C(=O)c3ccccc3C2=O)cc1`, the Potency was inconclusive: 11.6 µM [activator, partial curve].
For `O=C(NCCCl)Nc1ccc(Cl)c([N+](=O)[O-])c1`, the Potency was inconclusive: 23.1 µM [inhibitor, single point].
With `CCC(C)[C@H](NC(=O)N1CC(=O)Nc2ccccc21)C(=O)N1CCC(C(=O)O)CC1` (stereo not given in full) the Potency was inconclusive: 16.4 µM [activator, single point].
For `O=S(=O)(c1ccccc1)c1ncc(C(F)(F)F)cc1Cl`, the Potency was inconclusive: 25.9 µM [activator, single point].
With `CCc1ccc(C(=O)/C=C/Nc2ccc(S(=O)(=O)Nc3onc(C)c3C)cc2)cc1` the Potency was inconclusive: 18.4 µM [activator, single point].
In the case of `Cc1cc(NC(=O)C(C)SCC(=O)OCc2ccc([N+](=O)[O-])cc2)no1` (stereo not given), the Potency is reported as “inactive”.
With `CC(/C=N/n1c(-c2ccccc2)n[nH]c1=S)=C\c1ccco1` the Potency was “inactive”.
With `O=C(COc1ccc2ccccc2c1)NNC(=O)c1cnccn1` the Potency was “inactive”.
In the case of `CSc1ccc(/C=N/n2c(C3CCCCC3)n[nH]c2=S)cc1`, the Potency is reported as inconclusive: 4.11 µM [inhibitor, single point].
With `Cc1nn(-c2ccc(C(F)(F)F)cn2)c(C)c1Oc1ccccc1O` the Potency was “inactive”.
For `Cn1c(C(=O)NCc2ccccn2)cc2c(=O)n3ccccc3nc21`, the Potency was inconclusive: 8.2 µM [activator, partial curve].
In the case of `COC(=O)C1=C(C)N(c2ccc(C)c(C)c2)/C(=C/c2ccc(O)cc2)C1=O`, the Potency is reported as inconclusive: 20.6 µM [inhibitor, single point].
For `O=C(O)c1cc(-c2ccc(/C=N/N3C(=O)C4C5C=CC(CC5)C4C3=O)o2)ccc1Cl` (stereo not given), the Potency was “inactive”.
In the case of `COC(=O)c1ccc(COc2cccc3c2CCN(Cc2ccccc2)C3=O)o1`, the Potency is reported as active: 23.1 µM.
With `N/C(=N\NC(=O)Nc1ccc(Cl)cc1)c1ccccn1` the Potency was inconclusive: 20.6 µM [activator, partial curve].
In the case of `CNC(=O)c1ccc(-c2nc(-c3ccccc3)cs2)cc1`, the Potency is reported as inconclusive: 13 µM [activator, partial curve].
In the case of `N#C/C(=C\c1ccc(O)c(O)c1)C(=O)c1ccc(O)c(O)c1`, the Potency is reported as “inactive”.
With `O=C(NCc1ccccc1)N1CCN(c2ccc(F)cc2)CC1` the Potency was “inactive”.
For `Cc1ccc(/C(N)=N/OC(=O)c2cccs2)cc1`, the Potency was inconclusive: 9.2 µM [activator, partial curve].
In the case of `COc1ccc(S(=O)(=O)N(C)CC(=O)Nc2ccc(C(F)(F)F)cc2)cc1Cl`, the Potency is reported as inconclusive: 29.1 µM [inhibitor, single point].
With `COc1ccc(F)cc1C(=O)C1CCCN(C(=O)Cc2c(C)noc2C)C1` (stereo not given) the Potency was inconclusive: 23.1 µM [activator, partial curve, poor fit].
In the case of `O=S1(=O)CCN(Cc2csc(-c3cccs3)n2)CC1`, the Potency is reported as inconclusive: 14.6 µM [activator, partial curve].
For `COc1ccc(NC(=S)N2CCN(S(C)(=O)=O)CC2)cc1`, the Potency was “inactive”.
For `COc1ccc(C2=NOC(Cn3nc(-c4ccccc4)cc3C(=O)O)C2)cc1` (stereo not given), the Potency was inconclusive: 18.3 µM [activator, partial curve, poor fit].
For `Cc1cc(OCn2ccc(C(=O)O)n2)ccc1Cl`, the Potency was “inactive”.
For `O=C(c1cc2ccccc2oc1=O)N(Cc1ccco1)C1CCS(=O)(=O)C1` (stereo not given), the Potency was inconclusive: 16.4 µM [activator, partial curve].
With `COc1ccc(N(C(=O)c2ccco2)S(=O)(=O)c2cc(Cl)c(Cl)cc2Cl)cc1` the Potency was inconclusive: 29.1 µM [inhibitor, single point].
With `CCC1(C(=O)OC)CCc2c(cc(OC)c3ccccc23)C1=O` (stereo not given) the Potency was inconclusive: 16.4 µM [inhibitor, single point].
In the case of `O=C(Nc1ccccc1)c1ccco1`, the Potency is reported as inconclusive: 29.1 µM [activator, single point].
For `O=S(=O)(c1ccc(Br)cc1)c1nc(-c2ccco2)oc1NCCCn1ccnc1`, the Potency was “inactive”.
In the case of `O=C(NN(c1ccccc1)c1ccccc1)c1ccc([N+](=O)[O-])o1`, the Potency is reported as “inactive”.
